# Results from one PubChem assay

Data taken from PubChem BioAssay AID1159506, deposited by NCATS (2015).

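Genome-wide siRNA knockdown in TC32 Ewing sarcoma cells, comparing luciferase light from an NR0B1-promoter reporter with a CMV-promoter reporter 48 hours after transfection. Each siRNA was applied at 20 nM. A z-score of the log NR0B1-over-CMV signal, less the median of siRNAs with the same seed; more negative means a stronger specific loss of the NR0B1 reporter.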

The strongest results of the screen are mostly left out here. Sequences are the guide (antisense) strand, without overhang.

UGUUUGCAUUGCAACAUGG against YDJC read seed-corrected z-score 0.2043. With UAAGGAAGUCGUUACAGUG against CCIN the assay gave seed-corrected z-score 1.14. With UACAUUCGCAAACAUGCCG against DIP2B the assay gave seed-corrected z-score 1.227. UCUGUGAAAACCCUAAGAG against OR4D1 gave seed-corrected z-score 0.5608. UAAAGGGAUGGGUAGCAGA against MAGEA9 read seed-corrected z-score 0.7264. Result for UACAUUUCUUAAGAGGUUC against MRPS18C was seed-corrected z-score -0.358. Result for UCAGGUAUUGCUCAUCUUG against DCAF4 was seed-corrected z-score 0.3889.

UAGAGUACGAGGGUGAACU against FURIN gave seed-corrected z-score 0.5685. UGAACUUUCAAUGGGUUUG against TMEM192 read seed-corrected z-score -0.4041. AAUCUUGUAGACACCAUUG against SLCO1C1 read seed-corrected z-score -0.08706. UAUCAUCUGAGGACGACUG against ZZZ3 read seed-corrected z-score -0.4871. For UUCUCUGCGCUUUUCUUGC against MSX1 the result was seed-corrected z-score -0.05612. Result for AAAUUCAUAGUCUUGAUUC against LINC00614 was seed-corrected z-score 1.704. With UUUCCAUUCUUCAUAAUCC against ORC6 the assay gave seed-corrected z-score -0.3352.

For UAUAGUAGAGUUCCAAAUC against SPATA1 the result was seed-corrected z-score 1.11. With AGAUCACUAGAUGAUAUCC against CDKL3 the assay gave seed-corrected z-score -0.02639. Result for UUAUGUGAGACGUGCAAGC against OR4C11 was seed-corrected z-score 0.9181. Result for UCACUUCGCAGUUCACACC against NOTCH3 was seed-corrected z-score -0.07225. Result for UAAAUGUUAUGUCUGCAUG against SMR3B was seed-corrected z-score -0.4368. With AAAUUCAUUAGUACUAGCU against KCNC2 the assay gave seed-corrected z-score 0.2701. UCAUGAUUCUGUCUACGGC against REEP6 gave seed-corrected z-score 2.169.

With UUAGAGUCCGGAUCUCGCC against DFFA the assay gave seed-corrected z-score 0.7881. For AUGUUGAUCCAUGAACUUC against NUDC the result was seed-corrected z-score 0.2621. UUUGUAAAACCUCUGCUAC against SCG3 gave seed-corrected z-score 0.5047. UAACCUUGUUGAGCCGGUC against RPLP2 gave seed-corrected z-score -1.599. For UCUGGAUUAUCAUUUGGUG against ARHGEF3 the result was seed-corrected z-score -0.5205.